Measurements taken from the supplement of paper PMC11732987, “Enantioselective OTUD7B fragment discovery through chemoproteomics screening and high-throughput optimisation” (Communications Chemistry, 2025).
The other results are listed elsewhere or left out. The data scatter; read single values as rough.

Protein sequences, listed by entry. Tags and fused reporters are not part of them. Lines headed by an entry give the natural chain unless they say otherwise; changes in a name come on top. Residues count along the entry.
UniProt Q02809: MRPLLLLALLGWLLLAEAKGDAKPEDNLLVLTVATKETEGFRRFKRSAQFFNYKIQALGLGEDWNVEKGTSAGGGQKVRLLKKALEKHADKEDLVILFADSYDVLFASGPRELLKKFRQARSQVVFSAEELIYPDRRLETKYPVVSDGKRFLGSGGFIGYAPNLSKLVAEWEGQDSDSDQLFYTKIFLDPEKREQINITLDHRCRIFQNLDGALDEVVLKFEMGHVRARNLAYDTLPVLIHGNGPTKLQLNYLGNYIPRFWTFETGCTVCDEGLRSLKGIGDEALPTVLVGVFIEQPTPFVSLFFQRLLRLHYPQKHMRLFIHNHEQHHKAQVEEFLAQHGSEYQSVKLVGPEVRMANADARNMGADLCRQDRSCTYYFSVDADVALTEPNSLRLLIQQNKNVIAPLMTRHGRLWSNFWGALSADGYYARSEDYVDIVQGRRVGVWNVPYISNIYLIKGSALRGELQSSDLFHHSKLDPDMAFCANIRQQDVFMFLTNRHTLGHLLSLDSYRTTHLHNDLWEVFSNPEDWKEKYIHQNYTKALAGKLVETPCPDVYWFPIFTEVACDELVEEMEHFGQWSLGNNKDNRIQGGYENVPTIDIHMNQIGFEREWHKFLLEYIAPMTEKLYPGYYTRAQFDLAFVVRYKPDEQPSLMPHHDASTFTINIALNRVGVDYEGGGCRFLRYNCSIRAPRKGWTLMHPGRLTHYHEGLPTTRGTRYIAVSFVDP
UniProt Q6IQ23: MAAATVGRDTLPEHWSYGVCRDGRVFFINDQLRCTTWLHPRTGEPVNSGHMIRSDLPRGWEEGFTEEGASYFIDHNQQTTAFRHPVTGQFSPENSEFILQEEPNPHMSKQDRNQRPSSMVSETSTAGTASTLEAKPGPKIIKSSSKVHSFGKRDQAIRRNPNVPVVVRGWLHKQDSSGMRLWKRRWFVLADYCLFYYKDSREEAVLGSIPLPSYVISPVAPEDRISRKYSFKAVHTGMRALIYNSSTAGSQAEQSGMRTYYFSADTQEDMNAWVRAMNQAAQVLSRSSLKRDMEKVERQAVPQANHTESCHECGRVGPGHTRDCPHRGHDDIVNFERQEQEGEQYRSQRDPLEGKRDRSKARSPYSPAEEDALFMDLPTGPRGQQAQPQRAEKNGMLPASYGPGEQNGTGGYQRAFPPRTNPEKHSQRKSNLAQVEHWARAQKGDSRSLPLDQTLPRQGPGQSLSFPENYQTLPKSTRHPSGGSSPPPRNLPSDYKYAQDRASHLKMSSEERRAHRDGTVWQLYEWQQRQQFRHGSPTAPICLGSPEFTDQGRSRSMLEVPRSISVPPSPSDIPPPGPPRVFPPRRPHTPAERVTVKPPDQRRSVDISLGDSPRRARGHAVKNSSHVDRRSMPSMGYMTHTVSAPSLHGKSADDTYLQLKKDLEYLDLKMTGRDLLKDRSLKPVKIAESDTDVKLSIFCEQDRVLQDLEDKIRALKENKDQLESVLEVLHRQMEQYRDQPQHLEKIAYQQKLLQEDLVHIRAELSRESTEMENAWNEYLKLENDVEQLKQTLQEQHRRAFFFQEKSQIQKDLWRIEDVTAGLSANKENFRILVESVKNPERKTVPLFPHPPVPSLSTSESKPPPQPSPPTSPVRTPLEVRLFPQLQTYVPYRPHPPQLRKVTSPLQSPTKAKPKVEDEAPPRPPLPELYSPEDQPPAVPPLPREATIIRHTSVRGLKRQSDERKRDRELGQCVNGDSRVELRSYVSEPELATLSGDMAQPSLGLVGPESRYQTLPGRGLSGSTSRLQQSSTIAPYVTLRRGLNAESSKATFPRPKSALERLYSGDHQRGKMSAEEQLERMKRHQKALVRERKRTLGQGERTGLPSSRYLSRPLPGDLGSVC
UniProt Q92576, whole entry, looked up: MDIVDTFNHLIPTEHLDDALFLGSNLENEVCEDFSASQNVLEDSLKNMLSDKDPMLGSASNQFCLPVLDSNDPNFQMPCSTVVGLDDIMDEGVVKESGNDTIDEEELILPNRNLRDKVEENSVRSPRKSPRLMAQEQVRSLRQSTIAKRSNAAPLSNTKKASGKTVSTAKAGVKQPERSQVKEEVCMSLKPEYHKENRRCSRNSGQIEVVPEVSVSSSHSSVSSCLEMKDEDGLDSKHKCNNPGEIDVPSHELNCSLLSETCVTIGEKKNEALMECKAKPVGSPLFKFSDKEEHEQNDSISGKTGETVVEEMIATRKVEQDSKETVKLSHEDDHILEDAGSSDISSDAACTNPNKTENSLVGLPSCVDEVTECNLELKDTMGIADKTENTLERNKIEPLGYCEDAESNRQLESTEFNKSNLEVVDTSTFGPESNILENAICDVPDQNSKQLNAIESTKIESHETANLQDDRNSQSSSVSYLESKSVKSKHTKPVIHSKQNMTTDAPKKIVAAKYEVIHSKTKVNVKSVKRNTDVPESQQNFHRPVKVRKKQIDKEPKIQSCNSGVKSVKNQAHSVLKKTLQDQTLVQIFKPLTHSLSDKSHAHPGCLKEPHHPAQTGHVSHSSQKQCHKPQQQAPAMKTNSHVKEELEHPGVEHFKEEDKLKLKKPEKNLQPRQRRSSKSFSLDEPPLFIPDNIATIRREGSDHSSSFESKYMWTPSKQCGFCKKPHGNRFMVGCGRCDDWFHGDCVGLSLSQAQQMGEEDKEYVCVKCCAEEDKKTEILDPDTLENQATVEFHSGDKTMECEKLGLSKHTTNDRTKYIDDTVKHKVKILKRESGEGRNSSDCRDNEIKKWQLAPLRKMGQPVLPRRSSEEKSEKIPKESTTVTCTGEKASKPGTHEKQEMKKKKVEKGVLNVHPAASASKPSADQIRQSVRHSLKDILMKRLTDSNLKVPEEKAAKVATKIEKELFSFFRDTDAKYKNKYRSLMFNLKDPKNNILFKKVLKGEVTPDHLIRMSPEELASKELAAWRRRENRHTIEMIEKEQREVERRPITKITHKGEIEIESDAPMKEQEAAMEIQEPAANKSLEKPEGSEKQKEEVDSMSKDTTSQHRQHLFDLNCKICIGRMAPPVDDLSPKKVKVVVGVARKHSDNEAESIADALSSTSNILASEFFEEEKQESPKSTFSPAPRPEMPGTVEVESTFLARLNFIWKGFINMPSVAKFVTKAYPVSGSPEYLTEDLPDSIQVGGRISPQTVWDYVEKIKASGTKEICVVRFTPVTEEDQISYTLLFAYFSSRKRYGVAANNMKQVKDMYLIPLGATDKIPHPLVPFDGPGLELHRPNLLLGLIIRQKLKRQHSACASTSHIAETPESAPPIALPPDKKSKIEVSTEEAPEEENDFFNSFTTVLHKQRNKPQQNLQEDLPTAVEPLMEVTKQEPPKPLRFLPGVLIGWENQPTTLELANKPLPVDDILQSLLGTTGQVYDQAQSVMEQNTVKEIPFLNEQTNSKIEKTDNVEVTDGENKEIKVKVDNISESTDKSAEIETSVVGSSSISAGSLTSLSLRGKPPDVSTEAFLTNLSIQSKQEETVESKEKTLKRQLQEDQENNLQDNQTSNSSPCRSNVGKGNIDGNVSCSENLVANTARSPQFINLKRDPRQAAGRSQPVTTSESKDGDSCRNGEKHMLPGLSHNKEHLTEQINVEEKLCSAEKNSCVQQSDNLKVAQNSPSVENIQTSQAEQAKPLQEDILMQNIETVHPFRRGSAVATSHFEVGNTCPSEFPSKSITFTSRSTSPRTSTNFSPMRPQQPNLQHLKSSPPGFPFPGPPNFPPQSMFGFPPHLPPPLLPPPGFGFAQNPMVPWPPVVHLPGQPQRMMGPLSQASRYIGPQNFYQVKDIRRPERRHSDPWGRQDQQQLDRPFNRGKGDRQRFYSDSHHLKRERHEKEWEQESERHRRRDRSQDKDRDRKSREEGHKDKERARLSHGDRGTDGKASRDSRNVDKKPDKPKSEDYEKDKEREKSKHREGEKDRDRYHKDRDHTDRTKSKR
UniProt Q8N2W9: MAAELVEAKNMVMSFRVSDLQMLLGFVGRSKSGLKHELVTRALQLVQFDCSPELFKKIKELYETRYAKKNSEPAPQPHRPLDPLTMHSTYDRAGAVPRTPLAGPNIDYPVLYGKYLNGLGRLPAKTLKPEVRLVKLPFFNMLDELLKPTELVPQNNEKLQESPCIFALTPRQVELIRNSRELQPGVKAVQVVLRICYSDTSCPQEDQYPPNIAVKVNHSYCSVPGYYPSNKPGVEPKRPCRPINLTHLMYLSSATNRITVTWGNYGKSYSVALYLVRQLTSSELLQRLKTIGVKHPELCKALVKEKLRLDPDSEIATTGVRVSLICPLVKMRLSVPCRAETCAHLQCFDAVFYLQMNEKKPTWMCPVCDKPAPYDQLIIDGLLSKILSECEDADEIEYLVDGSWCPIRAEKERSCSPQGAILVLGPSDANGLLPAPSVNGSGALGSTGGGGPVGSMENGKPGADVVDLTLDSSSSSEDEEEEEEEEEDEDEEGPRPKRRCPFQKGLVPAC
UniProt Q9H307: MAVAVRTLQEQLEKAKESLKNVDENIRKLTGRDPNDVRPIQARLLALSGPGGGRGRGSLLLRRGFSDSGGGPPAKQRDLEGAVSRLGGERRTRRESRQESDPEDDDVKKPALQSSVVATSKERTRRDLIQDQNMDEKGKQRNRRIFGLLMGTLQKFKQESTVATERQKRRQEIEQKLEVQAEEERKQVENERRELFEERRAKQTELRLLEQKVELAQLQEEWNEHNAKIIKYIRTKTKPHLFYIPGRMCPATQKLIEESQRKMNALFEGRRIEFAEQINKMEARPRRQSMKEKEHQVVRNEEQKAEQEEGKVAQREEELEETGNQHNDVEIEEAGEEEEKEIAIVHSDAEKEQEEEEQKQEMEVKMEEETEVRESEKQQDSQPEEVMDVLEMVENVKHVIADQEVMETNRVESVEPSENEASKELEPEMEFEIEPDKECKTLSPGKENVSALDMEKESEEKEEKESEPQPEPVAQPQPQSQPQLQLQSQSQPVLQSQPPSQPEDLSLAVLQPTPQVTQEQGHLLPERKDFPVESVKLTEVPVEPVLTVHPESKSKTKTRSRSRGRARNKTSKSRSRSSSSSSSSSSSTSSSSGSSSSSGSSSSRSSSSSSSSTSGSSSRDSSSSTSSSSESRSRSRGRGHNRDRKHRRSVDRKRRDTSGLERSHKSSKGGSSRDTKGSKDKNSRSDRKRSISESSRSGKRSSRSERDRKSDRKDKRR
UniProt P53350: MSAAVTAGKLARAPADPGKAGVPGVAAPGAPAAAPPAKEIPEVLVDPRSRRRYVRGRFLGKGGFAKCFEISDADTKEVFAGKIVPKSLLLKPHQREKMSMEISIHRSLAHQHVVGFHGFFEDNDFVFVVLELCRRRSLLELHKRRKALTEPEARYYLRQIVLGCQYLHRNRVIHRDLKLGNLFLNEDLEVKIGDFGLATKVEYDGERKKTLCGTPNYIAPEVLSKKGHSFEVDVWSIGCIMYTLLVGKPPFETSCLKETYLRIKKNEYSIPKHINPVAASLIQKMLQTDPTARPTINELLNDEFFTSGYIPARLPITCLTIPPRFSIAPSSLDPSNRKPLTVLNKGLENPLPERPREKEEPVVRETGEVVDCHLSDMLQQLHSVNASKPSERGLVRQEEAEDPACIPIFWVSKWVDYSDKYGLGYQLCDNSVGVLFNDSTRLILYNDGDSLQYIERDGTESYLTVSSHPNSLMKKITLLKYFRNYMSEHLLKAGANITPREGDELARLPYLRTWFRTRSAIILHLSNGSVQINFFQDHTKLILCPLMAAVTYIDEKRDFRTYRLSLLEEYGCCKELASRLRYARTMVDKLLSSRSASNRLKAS
UniProt Q07864, 580-604: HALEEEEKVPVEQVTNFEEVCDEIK
UniProt Q9UBF8: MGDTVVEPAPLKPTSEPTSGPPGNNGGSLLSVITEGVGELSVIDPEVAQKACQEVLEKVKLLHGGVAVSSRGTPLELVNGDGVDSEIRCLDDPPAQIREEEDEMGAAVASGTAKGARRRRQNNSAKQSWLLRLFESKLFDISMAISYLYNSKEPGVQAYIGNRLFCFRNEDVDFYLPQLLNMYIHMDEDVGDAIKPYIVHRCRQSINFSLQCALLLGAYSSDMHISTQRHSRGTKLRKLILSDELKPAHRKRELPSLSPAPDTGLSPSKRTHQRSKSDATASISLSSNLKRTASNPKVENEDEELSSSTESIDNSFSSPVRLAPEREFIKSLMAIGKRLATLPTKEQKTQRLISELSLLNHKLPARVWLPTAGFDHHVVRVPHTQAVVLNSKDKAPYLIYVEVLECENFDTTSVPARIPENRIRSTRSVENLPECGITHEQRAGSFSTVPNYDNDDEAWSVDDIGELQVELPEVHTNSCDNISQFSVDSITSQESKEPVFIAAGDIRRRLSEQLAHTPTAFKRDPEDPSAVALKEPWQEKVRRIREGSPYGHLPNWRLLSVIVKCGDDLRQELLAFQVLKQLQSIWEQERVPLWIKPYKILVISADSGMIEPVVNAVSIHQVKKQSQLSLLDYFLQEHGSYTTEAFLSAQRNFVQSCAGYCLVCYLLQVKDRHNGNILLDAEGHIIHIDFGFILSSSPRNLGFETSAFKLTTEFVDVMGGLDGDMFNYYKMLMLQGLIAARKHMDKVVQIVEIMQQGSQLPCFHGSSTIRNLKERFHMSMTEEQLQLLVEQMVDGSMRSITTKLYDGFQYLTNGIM

Legend:
[1] = compound: ClCC(=O)N[C@@H]1CCCc2ccccc12; experiment: log2 mean competition ratio of IA-DTB cysteine labelling (DMSO/compound) (log2 ratio); higher = stronger cysteine engagement by compound; conditions: treatment time: 4 h, cell line lysate: HEK293T
Method: (§1)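 IA-DTB competitive cysteine chemoproteomics in HEK293T RIPA lysate. Lysates were treated with compound 29 or 30 at 50 or 200 µM for 4 h, then IA-DTB (500 µM, 1 h), trypsin-digested, NeutrAvidin-enriched and analysed by diaPASEF. Competition ratio = intensity DMSO / intensity compound (n=4 treated, n=64 DMSO); binding: mean log2 CR ≥ 1 and p ≤ 0.05 plus QC filters. Target is the cysteine site.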

[2] = compound: ClCC(=O)N[C@H]1CCCc2ccccc12; experiment: as above; conditions: treatment time: 4 h, cell line lysate: HEK293T
Method: as §1

Target	log2 mean competition ratio ([1]; 50 µM)	log2 mean competition ratio ([1]; 200 µM)	log2 mean competition ratio ([2]; 50 µM)	log2 mean competition ratio ([2]; 200 µM)
PLOD1 C484 (UniProt Q02809)	-0.0672	-0.314	0.19	-0.0391
PNKP C516 (UniProt Q96T60)	-0.147	-0.136	-0.00298	0.0415
POLR1A C822 (UniProt O95602)	-0.025	-0.138	-0.268	-0.215
PLEKHA7 C699 (UniProt Q6IQ23)	-0.322	-0.249	-0.468	-0.0205
PKNOX1 C326 (UniProt P55347)	0.298	0.249	0.287	0.211
PMS2 C653 (UniProt P54278)	-0.0157	-0.198	-0.543	-0.165
PLOD3 C691 (UniProt O60568)	-0.142	0.0136	0.368	1.24
PHF3 C561 (UniProt Q92576)	-0.0333	-0.0382	0.019	-0.0297
PIAS1 C335 (UniProt O75925)	-0.101	-0.0933	-0.527	0.00752
PLXNA1 C1744 (UniProt Q9UIW2)	0.114	-0.183	0.177	-0.00595
POGK C218 (UniProt Q9P215)	-0.177	0.316	-0.137	-0.23
PKN3 C706 (UniProt Q6P5Z2)	-0.0492	0.232	-0.113	0.293
PIAS4 C326 (UniProt Q8N2W9)	-0.11	-0.289	-0.0695	-0.142
PNN C439 (UniProt Q9H307)	-0.281	0.392	-0.299	0.301
PLIN2 C302 (UniProt Q99541)	-0.22	-0.193	-0.339	-0.316
POLR1A C1332 (UniProt O95602)	-0.115	-0.295	-0.732	-0.116

Shown bar-delimited: part of the list above
Target | log2 mean competition ratio ([1]; 50 µM) | log2 mean competition ratio ([1]; 200 µM) | log2 mean competition ratio ([2]; 50 µM) | log2 mean competition ratio ([2]; 200 µM)
PIAS1 C335 (UniProt O75925) | -0.101 | -0.0933 | -0.527 | 0.00752
PLXNA1 C1744 (UniProt Q9UIW2) | 0.114 | -0.183 | 0.177 | -0.00595

Later entries:

Target	log2 mean competition ratio ([1]; 50 µM)	log2 mean competition ratio ([1]; 200 µM)	log2 mean competition ratio ([2]; 50 µM)	log2 mean competition ratio ([2]; 200 µM)
PLEKHH3 C682	0.321	0.125	0.464	0.097
POLR1D C68	-0.0895	0.307	0.00712	-0.214
PHKG2 C188 (UniProt P15735)	-0.0149	-0.0341	-0.15	0.0678
PMPCB C277 (UniProt O75439)	-0.0397	-0.179	0.0939	-0.0487
PMM1 C57 (UniProt Q92871)	-0.0525	0.197	-0.17	0.306
PM20D2 C293 (UniProt Q8IYS1)	-0.00783	0.0144	-0.107	0.0159
PMF1 C13 (UniProt Q6P1K2)	-0.171	0.0117	-0.398	0.128
PLK1 C405 (UniProt P53350)	-0.38	-0.417	0.162	0.226
POLE C600 (UniProt Q07864)	-0.4	-0.0962	-0.299	-0.2
PLCG1 C247 (UniProt P19174)	-0.158	0.0768	-0.051	0.124
PIGT C195	0.25	-0.109	-0.0323	-0.149
POLR1B C103 (UniProt Q9H9Y6)	-0.294	-0.0219	-0.104	0.0401
PI4KB C89 (UniProt Q9UBF8)	-0.221	-0.00208	0.0683	-0.0536
PIK3C2A C804 (UniProt O00443)	-0.117	0.0171	0.159	0.193
POLD3 C398 (UniProt Q15054)	-0.172	-0.137	-0.0373	-0.141
POLR1C C256 (UniProt O15160)	-0.123	-0.0536	0.155	0.0114
